System: transduced T cells
Test: CAR expression on transduced T cells by flow cytometry
Type: cell-based, human

B1: CAR 3G12: 2nd generation anti-ENPP1 CAR: scFv 3G12 (SEQ ID NO:291) plus CAR chain SEQ ID NO:292 (CD8a, 4-1BB, CD3zeta) (protein)
chain: DIQMTQSPSSLSASVGDRVTITCRASQSISSYLNWYQQKPGKAPKLLIYAASSLQSGVPSRFSGSGSGTDFTLTISSLQPEDVAVYYCQQYYTSRITFGQGTKLEIKGGGGSGGGGSGGGGSQVQLVESGGGLVKPGGSLRLSCAASGFTFSDYYMSWIRQAPGKGLEWVSYISSSGSTIYYADSVKGRFTISRDNAKNSLYLQMNSLRAEDTAVYYCAREVYYYDSSGYYTYYFDYWGQGTLVTVSSGQAGRTTTPAPRPPTPAPTIASQPLSLRPEACRPAAGGAVHTRGLDFACDIYIWAPLAGTCGVLLLSLVITLYCKRGRKKLLYIFKQPFMRPVQTTQEEDGCSCRFPEEEEGGCELRVKFSRSADAPAYKQGQNQLYNELNLGRREEYDVLDKRRGRDPEMGGKPRRKNPQEGLYNELQKDKMAEAYSEIGMKGERRRGKGHDGLYQGLSTATKDTYDALHMQALPPR
CAR expression level (transduced CD4^+ T cells): 33.4% | CAR expression level (transduced CD8^+ T cells): 36.7%

From patent US20250177530A1, “MOLECULES THAT BIND TO ENPP1 POLYPEPTIDES” (UNIVERSITY OF PITTSBURGH - OF THE COMMONWEALTH SYSTEM OF …, priority 2022, published 2025)
